Data source: PubChem BioAssay AID504764 (Drosophila RNAi Screening Center, 2011)

Purpose: 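Genome-wide screen for regulators of Notch-driven gene expression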 (primary screen)
Cells: Drosophila Kc167 cells
Reagent: long dsRNA against Drosophila genes
Duration: about 5 days (4 days dsRNA, then 24 h after transfection)
Treatment: transfection of constitutively active membrane-tethered Notch lacking the extracellular domain, read 24 h later
Detection: 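Light from a Notch-responsive E(spl)m3 luciferase reporter under active Notch, with control-promoter and no-Notch reporter wells to normalise; raw counts from paired wells a and b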
Direction: induced reporter light, run 1, well a and induced reporter light, run 1, well b: higher = more light from the Notch target reporter with active Notch; control promoter light, run 1, well a and control promoter light, run 1, well b: higher = more light from the viral control promoter (cell number, transfection, viability); uninduced reporter light, run 1, well a: higher = more light from the Notch target reporter without active Notch
Active means: 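Wells with low control signal or poorly matching duplicates excluded; duplicates averaged; per source plate, z beyond ±2 for induced/control log2 ratio or beyond ±1.8 for induced/uninduced marks a hit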
Meaning of the calls: active = modifier hit (raised or lowered Notch signal); inactive = not a hit
The screen tested about 22,000 reagents; this is an unselected part of those that have a named target and a result. Over the whole deposit, 403 (1.9%) were called active. 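Unnormalised raw counts per well; ratio z-scores behind the hit calls and whether each hit raises or lowers signal are not deposited.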 Not given: the amount of reagent.

Target gene	dsRNA	induced reporter light, run 1, well a	induced reporter light, run 1, well b	control promoter light, run 1, well a	control promoter light, run 1, well b	uninduced reporter light, run 1, well a	outcome
CG13616	DRSC14619	1.78e5	1.52e5	1.98e5	1.73e5	12950	inactive
Cyp4e2 (Cytochrome P450 4e2)	DRSC07371	1.60e5	1.54e5	1.71e5	1.83e5	13420	inactive
CG7860	DRSC20060	1.95e5	1.70e5	2.34e5	2.06e5	11960	inactive
Cdc5 (Cell division cycle 5)	DRSC08577	23138	19380	43360	38580	1940	inactive
CG17764	DRSC18135	47895	54980	69700	68135	7890	inactive
Ugt37C2 (UDP-glycosyltransferase family 37 member C2)	DRSC02247	1.45e5	1.31e5	1.38e5	1.37e5	11415	inactive
Doc3 (Dorsocross3)	DRSC10480	90895	71560	98335	71220	5150	inactive
obst-G (obstructor-G)	DRSC11103	1.40e5	1.11e5	1.64e5	1.39e5	7390	inactive
CG6912	DRSC16132	2.23e5	2.68e5	2.24e5	2.64e5	20220	inactive
Sik3 (Salt-inducible kinase 3)	DRSC06505	31020	36515	45930	37485	3240	inactive
Sik3 (Salt-inducible kinase 3)	DRSC06771	77550	78305	1.48e5	1.36e5	6045	inactive
CG14515	DRSC14867	1.13e5	1.26e5	1.20e5	1.33e5	9595	inactive

Part of the list above, set out differently.
Target gene | dsRNA | induced reporter light, run 1, well a | induced reporter light, run 1, well b | control promoter light, run 1, well a | control promoter light, run 1, well b | uninduced reporter light, run 1, well a | outcome
Ugt37C2 (UDP-glycosyltransferase family 37 member C2) | DRSC02247 | 1.45e5 | 1.31e5 | 1.38e5 | 1.37e5 | 11415 | inactive
Doc3 (Dorsocross3) | DRSC10480 | 90895 | 71560 | 98335 | 71220 | 5150 | inactive
obst-G (obstructor-G) | DRSC11103 | 1.40e5 | 1.11e5 | 1.64e5 | 1.39e5 | 7390 | inactive

The list goes on.
Target gene	dsRNA	induced reporter light, run 1, well a	induced reporter light, run 1, well b	control promoter light, run 1, well a	control promoter light, run 1, well b	uninduced reporter light, run 1, well a	outcome
raw	DRSC03599	66935	1.31e5	80030	1.22e5	18810	inactive
raw	DRSC03600	74035	1.10e5	72870	60965	15845	inactive
S6KL (S6 Kinase Like)	DRSC19349	1.25e5	1.29e5	93570	69260	8345	inactive
CG31517	DRSC13010	1.01e5	1.21e5	1.45e5	1.17e5	9750	inactive
AGO3 (Argonaute 3)	DRSC21386						inactive
lcs (la costa)	DRSC20580	67730	92025	91655	1.04e5	9005	inactive
Lst (Limostatin)	DRSC07146	43195	27265	43170	48085	3610	inactive
Mlp84B (Muscle LIM protein at 84B)	DRSC12596	72785	80930	77510	65565	4515	inactive
